# Where two headings read alike, the source gives them in different places. These are yes or no findings as the source states them, for the method shown. Binding seen in cells or lysates may run through a third protein. Some binding calls cover weakened binding; strength is not graded here. For some assays here: Sequences can lack the tags named with a protein.
# By UniProt entry, the sequences of proteins in these tests, tags left out.
# UniProt Q3TKT4: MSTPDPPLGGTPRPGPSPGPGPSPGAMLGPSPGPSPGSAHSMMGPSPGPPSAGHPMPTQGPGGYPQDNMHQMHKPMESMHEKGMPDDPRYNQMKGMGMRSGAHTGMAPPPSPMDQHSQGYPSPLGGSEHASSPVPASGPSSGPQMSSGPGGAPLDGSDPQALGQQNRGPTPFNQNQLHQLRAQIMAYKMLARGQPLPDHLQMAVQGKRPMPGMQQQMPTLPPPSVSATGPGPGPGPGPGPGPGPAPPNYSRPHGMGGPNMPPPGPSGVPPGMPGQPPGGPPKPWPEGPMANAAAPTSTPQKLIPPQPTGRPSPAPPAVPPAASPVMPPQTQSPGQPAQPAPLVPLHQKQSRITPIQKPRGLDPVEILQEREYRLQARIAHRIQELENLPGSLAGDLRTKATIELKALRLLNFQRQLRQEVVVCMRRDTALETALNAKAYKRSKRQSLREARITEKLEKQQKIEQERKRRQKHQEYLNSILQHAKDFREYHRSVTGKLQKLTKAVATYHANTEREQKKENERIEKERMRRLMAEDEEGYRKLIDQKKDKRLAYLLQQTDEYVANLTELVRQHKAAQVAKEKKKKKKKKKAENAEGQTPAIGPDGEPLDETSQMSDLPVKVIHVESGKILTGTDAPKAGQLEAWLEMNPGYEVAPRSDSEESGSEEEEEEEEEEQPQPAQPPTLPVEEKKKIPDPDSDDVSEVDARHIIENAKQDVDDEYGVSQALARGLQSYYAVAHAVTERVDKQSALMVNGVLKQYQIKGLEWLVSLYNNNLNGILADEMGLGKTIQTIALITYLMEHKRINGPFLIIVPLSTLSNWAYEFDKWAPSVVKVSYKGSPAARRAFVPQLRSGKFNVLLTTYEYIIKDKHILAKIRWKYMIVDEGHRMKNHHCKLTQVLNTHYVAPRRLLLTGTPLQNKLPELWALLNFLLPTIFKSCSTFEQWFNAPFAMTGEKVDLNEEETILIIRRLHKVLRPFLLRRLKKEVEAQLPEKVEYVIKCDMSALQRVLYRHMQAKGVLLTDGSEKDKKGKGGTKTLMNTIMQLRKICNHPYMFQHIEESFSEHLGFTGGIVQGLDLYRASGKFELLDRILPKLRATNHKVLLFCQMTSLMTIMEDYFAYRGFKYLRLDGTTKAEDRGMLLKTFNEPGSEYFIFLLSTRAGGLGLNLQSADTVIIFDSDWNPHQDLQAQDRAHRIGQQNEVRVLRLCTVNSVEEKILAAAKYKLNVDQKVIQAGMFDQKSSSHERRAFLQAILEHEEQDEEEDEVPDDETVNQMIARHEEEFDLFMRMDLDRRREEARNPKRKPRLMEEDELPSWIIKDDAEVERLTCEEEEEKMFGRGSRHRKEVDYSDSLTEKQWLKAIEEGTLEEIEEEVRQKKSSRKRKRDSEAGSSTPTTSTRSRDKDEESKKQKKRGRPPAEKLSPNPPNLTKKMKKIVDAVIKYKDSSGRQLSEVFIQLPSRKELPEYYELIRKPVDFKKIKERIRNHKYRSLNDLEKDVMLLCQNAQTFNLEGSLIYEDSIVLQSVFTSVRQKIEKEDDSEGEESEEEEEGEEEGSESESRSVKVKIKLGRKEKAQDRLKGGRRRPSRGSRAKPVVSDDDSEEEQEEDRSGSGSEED
# T1: FLAG-tagged Nkx2.1 (UniProt P50220)
# T1 sequence: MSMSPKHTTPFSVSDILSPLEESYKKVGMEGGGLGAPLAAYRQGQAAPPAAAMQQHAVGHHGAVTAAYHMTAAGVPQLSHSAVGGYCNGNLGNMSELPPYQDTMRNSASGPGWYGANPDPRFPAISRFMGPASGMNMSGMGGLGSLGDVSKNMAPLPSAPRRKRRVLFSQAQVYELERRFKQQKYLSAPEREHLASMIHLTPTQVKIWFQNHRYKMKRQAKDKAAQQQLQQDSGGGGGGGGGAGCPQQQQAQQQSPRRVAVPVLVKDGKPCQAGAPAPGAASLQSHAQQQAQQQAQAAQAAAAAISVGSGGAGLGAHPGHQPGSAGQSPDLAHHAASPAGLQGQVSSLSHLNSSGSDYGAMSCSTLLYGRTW
# T2: endogenous Nkx2.1 (mouse (endogenous in E17.5 lung tissue)) (UniProt P50220)
# T2 sequence: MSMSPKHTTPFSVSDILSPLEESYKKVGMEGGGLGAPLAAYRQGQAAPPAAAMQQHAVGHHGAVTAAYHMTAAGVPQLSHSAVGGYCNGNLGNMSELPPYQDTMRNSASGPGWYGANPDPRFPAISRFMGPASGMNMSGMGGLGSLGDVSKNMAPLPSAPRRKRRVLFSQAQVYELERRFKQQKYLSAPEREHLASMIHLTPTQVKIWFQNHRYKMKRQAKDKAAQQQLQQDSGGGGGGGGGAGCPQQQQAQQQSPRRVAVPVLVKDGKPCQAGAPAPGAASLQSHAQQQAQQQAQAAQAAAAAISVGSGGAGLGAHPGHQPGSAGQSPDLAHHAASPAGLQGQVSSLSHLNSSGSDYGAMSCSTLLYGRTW
# Tests used:
# FLAG-tagged Brg1 = FLAG-tagged Brg1 (UniProt Q3TKT4); assay: co-IP; coimmunoprecipitation and immunoblot of 293T cells expressing HA-tagged and FLAG-tagged proteins; which tag was precipitated is not told
# FLAG-tagged Nkx2.1 [1] = target: T1, FLAG-tagged Nkx2.1; assay: as above
# [2] = target: T2, endogenous Nkx2.1 (mouse (endogenous in E17.5 lung tissue)); assay: co-IP; CoIP of endogenous Nkx2.1, Brg1 and Jmjd3 in WT and Jmjd3-deficient mouse lung tissues at E17.5
# FLAG-tagged Nkx2.1 [3] = target: T1, FLAG-tagged Nkx2.1; assay: co-IP; coimmunoprecipitation and immunoblot of 293T cells expressing HA-tagged and FLAG-tagged proteins; which tag was precipitated is not told; remark: listed apart in the source
molecule,measurement,setting,value
HA-tagged Jmjd3 (Jumonji domain containing-3) (from UniProt O15054-1 1-1682) (enzyme),binding,FLAG-tagged Brg1,binds
same,binding,FLAG-tagged Nkx2.1 [1],binds
HA-tagged Jmjd3C (1201-1682 aa) (from UniProt O15054-1 1201-1682) (domain or fragment),binding,FLAG-tagged Brg1,binds
endogenous Brg1 (from UniProt Q3TKT4 1-1613) (enzyme),binding,[2],binds
"HA-tagged Jmjd3N (1-450 aa) (domain or fragment, UniProt O15054-1 1-450) MHRAVDPPGARAAREAFALGGLSCAGAWSSCPPHPPPRSAWLPGGRCSASIGQPPLPAPLPPSHGSSSGHPSKPYYAPGAPTPRPLHGKLESLHGCVQALLREPAQPGLWEQLGQLYESEHDSEEATRCYHSALRYGGSFAELGPRIGRLQQAQLWNFHTGSCQHRAKVLPPLEQVWNLLHLEHKRNYGAKRGGPPVKRAAEPPVVQPVPPAALSGPSGEEGLSPGGKRRRGCNSEQTGLPPGLPLPPPPLPPPPPPPPPPPPPLPGLATSPPFQLTKPGLWSTLHGDAWGPERKGSAPPERQEQRHSLPHPYPYPAPAYTAHPPGHRLVPAAPPGPGPRPPGAESHGCLPATRPPGSDLRESRVQRSRMDSSVSPAATTACVPYAPSRPPGLPGTTTSSSSSSSSNTGLRGVEPNPGIPGADHYQTPALEVSHHGRLGPSAHSSRKPFL",binding,FLAG-tagged Nkx2.1 [3],binds

# Reference: PMC4117460
